No constants are given. Whether binding was seen depends on the method and setting. Binding seen in cells or lysates may run through a third protein. These calls come from enrichment with a bait or labelling near it, and not all partners need be listed.

Sequences of proteins named here, by UniProt entry; tags and fusion partners are left off. A change or cut given only in a name is not applied to a line headed by its entry.
UniProt Q9H239: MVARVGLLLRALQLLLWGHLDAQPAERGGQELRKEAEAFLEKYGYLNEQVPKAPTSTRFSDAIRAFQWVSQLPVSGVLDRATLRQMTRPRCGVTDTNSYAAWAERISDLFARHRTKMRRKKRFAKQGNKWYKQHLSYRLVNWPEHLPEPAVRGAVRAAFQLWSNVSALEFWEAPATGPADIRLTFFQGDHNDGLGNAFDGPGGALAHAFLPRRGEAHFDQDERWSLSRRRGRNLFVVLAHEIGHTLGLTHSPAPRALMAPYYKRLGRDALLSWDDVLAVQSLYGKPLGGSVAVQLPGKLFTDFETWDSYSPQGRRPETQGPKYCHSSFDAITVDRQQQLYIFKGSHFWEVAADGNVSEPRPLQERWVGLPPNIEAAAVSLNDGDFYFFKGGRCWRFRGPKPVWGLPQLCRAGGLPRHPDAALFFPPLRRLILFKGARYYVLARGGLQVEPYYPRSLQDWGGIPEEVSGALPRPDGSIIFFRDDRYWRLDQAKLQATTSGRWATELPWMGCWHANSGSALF

To fix the notation:
B1: YWHAQ (protein, UniProt P27348 1-245)
chain: MEKTELIQKAKLAEQAERYDDMATCMKAVTEQGAELSNEERNLLSVAYKNVVGGRRSAWRVISSIEQKTDTSDKKLQLIKDYREKVESELRSICTTVLELLDKYLIANATNPESKVFYLKMKGDYFRYLAEVACGDDRKQTIDNSQGAYQEAFDISKKEMQPTHPIRLGLALNFSVFYYEILNNPELACTLAKTAFDEAIAELDTLNEDSYKDSTLIMQLLRDNLTLWTSDSAGEECDAAEGAEN
B2: MIF (protein, UniProt P14174 1-115)
chain: MPMFIVNTNVPRASVPDGFLSELTQQLAQATGKPPQYIAVHVVPDQLMAFGGSSEPCALCSLHSIGKIGGAQNRSYSKLLCGLLAERLRISPDRVYINYYDMNAANVGWNNSTFA
B3: TKT (protein, UniProt P29401 1-623)
chain: MESYHKPDQQKLQALKDTANRLRISSIQATTAAGSGHPTSCCSAAEIMAVLFFHTMRYKSQDPRNPHNDRFVLSKGHAAPILYAVWAEAGFLAEAELLNLRKISSDLDGHPVPKQAFTDVATGSLGQGLGAACGMAYTGKYFDKASYRVYCLLGDGELSEGSVWEAMAFASIYKLDNLVAILDINRLGQSDPAPLQHQMDIYQKRCEAFGWHAIIVDGHSVEELCKAFGQAKHQPTAIIAKTFKGRGITGVEDKESWHGKPLPKNMAEQIIQEIYSQIQSKKKILATPPQEDAPSVDIANIRMPSLPSYKVGDKIATRKAYGQALAKLGHASDRIIALDGDTKNSTFSEIFKKEHPDRFIECYIAEQNMVSIAVGCATRNRTVPFCSTFAAFFTRAFDQIRMAAISESNINLCGSHCGVSIGEDGPSQMALEDLAMFRSVPTSTVFYPSDGVATEKAVELAANTKGICFIRTSRPENAIIYNNNEDFQVGQAKVVLKSKDDQVTVIGAGVTLHEALAAAELLKKEKINIRVLDPFTIKPLDRKLILDSARATKGRILTVEDHYYEGGIGEAVSSAVVGEPGITVTHLAVNRVPRSGKPAELLKMFGIDRDAIAQAVRGLITKA
B4: PRDX6 (protein, UniProt P30041 1-224)
chain: MPGGLLLGDVAPNFEANTTVGRIRFHDFLGDSWGILFSHPRDFTPVCTTELGRAAKLAPEFAKRNVKLIALSIDSVEDHLAWSKDINAYNCEEPTEKLPFPIIDDRNRELAILLGMLDPAEKDEKGMPVTARVVFVFGPDKKLKLSILYPATTGRNFDEILRVVISLQLTAEKRVATPVDWKDGDSVMVLPTIPEEEAKKLFPKGVFTKELPSGKKYLRYTPQP
B5: MDH2 (protein, UniProt P40926 25-338)
chain: AKVAVLGASGGIGQPLSLLLKNSPLVSRLTLYDIAHTPGVAADLSHIETKAAVKGYLGPEQLPDCLKGCDVVVIPAGVPRKPGMTRDDLFNTNATIVATLTAACAQHCPEAMICVIANPVNSTIPITAEVFKKHGVYNPNKIFGVTTLDIVRANTFVAELKGLDPARVNVPVIGGHAGKTIIPLISQCTPKVDFPQDQLTALTGRIQEAGTEVVKAKAGAGSATLSMAYAGARFVFSLVDAMNGKEGVVECSFVKSQETECTYFSTPLLLGKKGIEKNLGIGKVSSFEEKMISDAIPELKASIKKGEDFVKTLK
B6: CRTAC1 (protein, UniProt Q9NQ79 28-661)
chain: SQRAEPMFTAVTNSVLPPDYDSNPTQLNYGVAVTDVDHDGDFEIVVAGYNGPNLVLKYDRAQKRLVNIAVDERSSPYYALRDRQGNAIGVTACDIDGDGREEIYFLNTNNAFSGVATYTDKLFKFRNNRWEDILSDEVNVARGVASLFAGRSVACVDRKGSGRYSIYIANYAYGNVGPDALIEMDPEASDLSRGILALRDVAAEAGVSKYTGGRGVSVGPILSSSASDIFCDNENGPNFLFHNRGDGTFVDAAASAGVDDPHQHGRGVALADFNRDGKVDIVYGNWNGPHRLYLQMSTHGKVRFRDIASPKFSMPSPVRTVITADFDNDQELEIFFNNIAYRSSSANRLFRVIRREHGDPLIEELNPGDALEPEGRGTGGVVTDFDGDGMLDLILSHGESMAQPLSVFRGNQGFNNNWLRVVPRTRFGAFARGAKVVLYTKKSGAHLRIIDGGSGYLCEMEPVAHFGLGKDEASSVEVTWPDGKMVSRNVASGEMNSVLEILYPRDEDTLQDPAPLECGQGFSQQENGHCMDTNECIQFPFVCPRDKPVCVNTYGSYRCRTNKKCSRGYEPNEDGTACVGTLGQSPGPRPTTPTAAAATAAAAAAAGAATAAPVLVDGDLNLGSVVKESCEPSC

One assay concerns the target matrix metalloproteinase 28 (MMP28) (human (endogenous in AsPC-1 and BxPC-3)) (UniProt Q9H239). The assay is described as follows: affinity purification with mass spectrometry; AsPC-1 whole-cell lysate (enhanced RIPA buffer) incubated with MMP28 antibody or IgG control at 4 °C overnight, protein A/G agarose 3 h, five RIPA washes; LC-MS/MS; top 30 candidates listed.
For the molecule B1, the binding entry is “binds”. As for B2, the binding entry was “binds”. On to B3, for which the binding result is reported as “binds”. Still for that read-out and setting: as for B4, the entry is “binds”. The same measure, in the same setting: to B5 belongs “binds”.

The target is the same in a further assay. Description: affinity purification with mass spectrometry; BxPC-3 whole-cell lysate (enhanced RIPA buffer) incubated with MMP28 antibody or IgG control at 4 °C overnight, protein A/G agarose 3 h, five RIPA washes; LC-MS/MS; top 30 candidates listed.
Consider B3, for which the binding result is “binds”. Take B6: the binding result is given as “binds”.

Values taken from publication PMC11837641.
